From PMC8034861 come the findings set out here.

By UniProt entry, the sequences of proteins in these tests, tags left out.
UniProt P33175: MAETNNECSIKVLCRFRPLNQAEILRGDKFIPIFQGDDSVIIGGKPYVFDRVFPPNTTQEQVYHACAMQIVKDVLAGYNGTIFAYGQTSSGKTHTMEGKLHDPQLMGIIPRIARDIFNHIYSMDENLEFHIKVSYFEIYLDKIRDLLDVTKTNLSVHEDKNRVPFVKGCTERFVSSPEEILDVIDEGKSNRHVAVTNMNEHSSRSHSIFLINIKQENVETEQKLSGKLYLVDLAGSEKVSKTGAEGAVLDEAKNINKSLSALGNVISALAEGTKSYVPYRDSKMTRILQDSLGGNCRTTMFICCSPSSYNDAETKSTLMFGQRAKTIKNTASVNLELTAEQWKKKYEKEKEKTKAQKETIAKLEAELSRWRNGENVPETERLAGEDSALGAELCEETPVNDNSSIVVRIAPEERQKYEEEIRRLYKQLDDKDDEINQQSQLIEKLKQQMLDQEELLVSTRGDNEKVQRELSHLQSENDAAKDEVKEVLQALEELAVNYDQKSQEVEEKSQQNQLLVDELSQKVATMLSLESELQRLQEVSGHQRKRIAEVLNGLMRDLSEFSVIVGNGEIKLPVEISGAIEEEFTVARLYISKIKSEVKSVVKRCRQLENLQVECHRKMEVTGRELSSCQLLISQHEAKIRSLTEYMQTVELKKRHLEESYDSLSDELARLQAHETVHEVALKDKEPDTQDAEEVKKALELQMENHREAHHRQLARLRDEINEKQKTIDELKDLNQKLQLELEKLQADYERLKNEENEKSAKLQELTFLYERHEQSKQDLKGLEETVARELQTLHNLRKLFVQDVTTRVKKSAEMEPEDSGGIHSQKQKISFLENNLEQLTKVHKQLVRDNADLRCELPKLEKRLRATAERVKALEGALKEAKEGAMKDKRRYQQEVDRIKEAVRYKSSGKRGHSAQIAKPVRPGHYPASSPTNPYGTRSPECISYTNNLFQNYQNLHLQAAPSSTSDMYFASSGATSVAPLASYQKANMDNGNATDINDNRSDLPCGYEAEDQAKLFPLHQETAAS
UniProt Q61768: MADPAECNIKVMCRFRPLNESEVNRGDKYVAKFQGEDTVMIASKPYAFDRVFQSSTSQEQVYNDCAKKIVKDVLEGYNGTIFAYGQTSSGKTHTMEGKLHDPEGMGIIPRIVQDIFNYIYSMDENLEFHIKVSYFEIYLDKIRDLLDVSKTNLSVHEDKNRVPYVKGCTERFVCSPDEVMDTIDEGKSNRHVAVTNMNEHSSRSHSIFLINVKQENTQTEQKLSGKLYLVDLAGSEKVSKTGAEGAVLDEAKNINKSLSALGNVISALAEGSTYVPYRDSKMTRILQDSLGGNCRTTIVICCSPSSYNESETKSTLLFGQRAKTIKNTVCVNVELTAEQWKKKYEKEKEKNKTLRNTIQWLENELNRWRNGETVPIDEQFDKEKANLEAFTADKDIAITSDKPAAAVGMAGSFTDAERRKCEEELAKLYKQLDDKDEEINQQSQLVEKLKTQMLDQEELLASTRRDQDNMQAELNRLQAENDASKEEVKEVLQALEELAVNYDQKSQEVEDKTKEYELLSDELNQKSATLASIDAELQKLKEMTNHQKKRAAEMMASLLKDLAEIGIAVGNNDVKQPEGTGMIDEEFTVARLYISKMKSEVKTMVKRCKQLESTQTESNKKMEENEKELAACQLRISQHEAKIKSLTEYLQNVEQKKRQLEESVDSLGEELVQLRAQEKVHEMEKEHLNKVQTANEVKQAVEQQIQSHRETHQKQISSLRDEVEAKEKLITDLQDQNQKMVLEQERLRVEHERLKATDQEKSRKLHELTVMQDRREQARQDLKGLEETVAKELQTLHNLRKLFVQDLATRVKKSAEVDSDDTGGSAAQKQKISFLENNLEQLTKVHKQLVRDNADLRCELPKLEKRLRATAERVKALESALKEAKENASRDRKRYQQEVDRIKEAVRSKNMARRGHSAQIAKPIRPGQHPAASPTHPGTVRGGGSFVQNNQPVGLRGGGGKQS
UniProt P28738: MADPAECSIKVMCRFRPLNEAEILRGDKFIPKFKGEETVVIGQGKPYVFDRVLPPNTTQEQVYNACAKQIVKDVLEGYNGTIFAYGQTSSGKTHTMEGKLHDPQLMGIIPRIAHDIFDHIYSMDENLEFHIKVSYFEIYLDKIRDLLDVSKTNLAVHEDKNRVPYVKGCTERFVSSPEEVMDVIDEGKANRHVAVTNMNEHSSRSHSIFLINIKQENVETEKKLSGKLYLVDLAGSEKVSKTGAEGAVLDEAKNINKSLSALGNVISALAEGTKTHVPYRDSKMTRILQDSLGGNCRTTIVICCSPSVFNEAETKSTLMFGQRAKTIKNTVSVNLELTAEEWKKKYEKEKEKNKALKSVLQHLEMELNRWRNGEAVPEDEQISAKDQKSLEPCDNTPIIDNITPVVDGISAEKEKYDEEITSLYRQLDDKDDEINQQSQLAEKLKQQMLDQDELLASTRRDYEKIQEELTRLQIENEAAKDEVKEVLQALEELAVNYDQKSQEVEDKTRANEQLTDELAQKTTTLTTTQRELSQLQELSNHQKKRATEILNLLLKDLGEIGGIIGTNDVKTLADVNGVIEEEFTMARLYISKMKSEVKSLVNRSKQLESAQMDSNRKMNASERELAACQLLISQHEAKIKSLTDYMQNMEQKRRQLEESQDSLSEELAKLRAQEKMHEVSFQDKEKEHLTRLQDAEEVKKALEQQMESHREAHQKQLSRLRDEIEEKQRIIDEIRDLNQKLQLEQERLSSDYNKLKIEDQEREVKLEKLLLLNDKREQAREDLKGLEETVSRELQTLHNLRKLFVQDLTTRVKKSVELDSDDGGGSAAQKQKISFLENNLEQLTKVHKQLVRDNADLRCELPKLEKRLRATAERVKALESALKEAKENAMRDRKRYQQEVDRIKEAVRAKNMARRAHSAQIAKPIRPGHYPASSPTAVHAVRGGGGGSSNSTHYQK

Results are given in words; binding and its absence hold for the method and conditions named. Binding seen in cells or lysates may run through a third protein. These calls come from enrichment with a bait or labelling near it, and not all partners need be listed.

This test has as its target T1, PR30 peptide (30 repeats of proline-arginine), unlabelled (human).
T1 sequence (peptide): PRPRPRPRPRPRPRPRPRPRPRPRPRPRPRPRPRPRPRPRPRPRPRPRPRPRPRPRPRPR
The test can be described thus: affinity purification with mass spectrometry; 50 μM PR30 added to 0.5 mg soluble mouse spinal cord lysate in PBS (400 μl), 15 min; peptide-induced condensates pelleted at 3220g, washed three times with PBS; LC-MS/MS; some samples cross-linked with 0.5% paraformaldehyde; only the target purified.
For “Kif5A (kinesin-1 isoform), mouse spinal cord (from UniProt P33175 1-1027)”, the binding result is “binds”.

As for “Kif5B (kinesin-1 isoform), mouse spinal cord (from UniProt Q61768 1-963)”, the binding result is given as “binds”.

In the case of “Kif5C (kinesin-1 isoform), mouse spinal cord (from UniProt P28738 1-956)”, the binding result is recorded as “binds”.
